# PubChem BioAssay AID1508588, Peter MacCallum Cancer Centre – 2020
# Test: 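Which gene losses make BRAF-mutant melanoma cells more responsive to vemurafenib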 (primary screen)
# System: human WM266.4 melanoma cells (BRAF V600 mutant)
# Knock-down reagent: siRNA pool against human genes, 40 nM
# Time to read-out: 96 h from transfection to read-out
# Challenge: vemurafenib 300 nM (about IC25), added 48 h after transfection, for 48 h; comparison arm got DMSO vehicle only
# Read-out: 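Ratios to non-targeting siRNA for cell gain, counted as DAPI nuclei after minus before drug and averaged over two replicates, and for absorbance-read medium lactate per cell; both binned into fold-change classes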
# Direction: cell gain with vemurafenib: higher = more cell gain than with non-targeting siRNA; lactate per cell with vemurafenib: higher = more lactate made per cell
# Active means: 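Enhancement is called by pairing each knock-down's vehicle-arm and drug-arm fold-change classes for viability or glycolysis; which class combinations qualify is not given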
# Calls: active = enhances vemurafenib effect; inactive = no enhancement seen
# The deposit covers about 18,000 reagents; below is an unselected part. Over the whole deposit, 790 (4.4%) were called active. 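Calls rest on a combination of fold-change classes in drug and vehicle arms, not all shown here.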 Entries without a mark were called inactive.
gene knocked down,cell gain with vemurafenib,lactate per cell with vemurafenib
ZNF408 (GeneID 79797),0.67,1.1
KRIT1 (GeneID 889),0.9,0.52
ARL6IP5 (GeneID 10550),0.93,0.6
MOB4 (GeneID 25843),0.62,1.71
SLC9C1 (GeneID 285335),0.01,0.93
PSENEN (GeneID 55851),0.8,0.38
MSR1 (GeneID 4481),0.85,1.28
KLF8 (GeneID 11279),0.72,1.54
PTGDR (GeneID 5729),0.89,0.84
SPATA2 (GeneID 9825),0.65,0.85
NNMT (GeneID 4837),0.53,1.29
RPL18A (GeneID 6142),-0.02,1.98
C6orf58 (GeneID 352999),0.98,1.23
SMYD2 (GeneID 56950),0.68,0.97
STRIP1 (GeneID 85369),0.91,0.64
CLU (GeneID 1191),1.29,0.38
TNFRSF14 (GeneID 8764),0.68,1.35
BAZ2A (GeneID 11176),0.7,0.93
MNMIP1 (GeneID 79729),1.22,0.42
TSPAN3 (GeneID 10099),0.62,0.64
LEFTY2 (GeneID 7044),0.7,1.44
SLAMF6 (GeneID 114836),0.39,1.17
PPIL2 (GeneID 23759),1.04,0.56
SMARCA2 (GeneID 6595),0.76,0.47
ODF2 (GeneID 4957),1.34,0.58
AFF3 (GeneID 3899),1.03,0.63
C12orf76 (GeneID 400073),0.24,1.8
C1QTNF1 (GeneID 114897),1.03,0.94
EDF1 (GeneID 8721),0.5,0.36
NR4A1 (GeneID 3164),0.63,1.02
HTR4 (GeneID 3360),0.5,1.27
HR (GeneID 55806),0.95,0.74
MIA (GeneID 8190),1.03,0.63
TIMM10 (GeneID 26519),0.44,1.28
AVPR2 (GeneID 554),-0.02,0.96
CTRB1 (GeneID 1504),0.15,1.56
DENND1A (GeneID 57706),0.66,0.46
LSMEM1 (GeneID 286006),0.61,0.38
ST3GAL4 (GeneID 6484),0.47,1.14
LINC00207 (GeneID 388910),0.38,1.54
LYLDT1 (GeneID 121273),0.46,1
HAUS3 (GeneID 79441),0.38,0.94
RPRML (GeneID 388394),0.24,2.36
CACNG4 (GeneID 27092),0.58,1.44
METTL6 (GeneID 131965),0.6,1.5
NACC2 (GeneID 138151),0.08,0.98
IFNA17 (GeneID 3451),0.72,0.77
ZNF280C (GeneID 55609),0.36,0.86
DENND2D (GeneID 79961),0.35,1.56
LRRK1 (GeneID 79705),0.78,0.53
MYO15A (GeneID 51168),0.76,1.23
ZNF337 (GeneID 26152),0.68,1.36
PIEZO1 (GeneID 9780),0.65,0.85
BAK1 (GeneID 578),0.57,0.54
TRIM26 (GeneID 7726),1.12,0.7
CALHM2 (GeneID 51063),0.73,0.66
ENO3 (GeneID 2027),0.67,0.76

A run of entries of the results above, as a working copy:
gene knocked down,cell gain with vemurafenib,lactate per cell with vemurafenib
ZNF408 (GeneID 79797),0.67,1.1
KRIT1 (GeneID 889),0.9,0.52
ARL6IP5 (GeneID 10550),0.93,0.6
MOB4 (GeneID 25843),0.62,1.71
SLC9C1 (GeneID 285335),0.01,0.93
PSENEN (GeneID 55851),0.8,0.38
MSR1 (GeneID 4481),0.85,1.28
KLF8 (GeneID 11279),0.72,1.54
